Measurements: publication PMC6377406
Where two headings read alike, the source gives them in different places. Results are given in words; binding and its absence hold for the method and conditions named. In cells and extracts the contact can be indirect. Some results given as binding are weak or reduced against the parent protein; the word gives no strength. Values belong to the molecule of their own block, whether it stands above or below them.

By UniProt entry, the sequences of proteins in these tests, tags left out. Residues count along the entry.
UniProt Q9BXM7, residues 78-581: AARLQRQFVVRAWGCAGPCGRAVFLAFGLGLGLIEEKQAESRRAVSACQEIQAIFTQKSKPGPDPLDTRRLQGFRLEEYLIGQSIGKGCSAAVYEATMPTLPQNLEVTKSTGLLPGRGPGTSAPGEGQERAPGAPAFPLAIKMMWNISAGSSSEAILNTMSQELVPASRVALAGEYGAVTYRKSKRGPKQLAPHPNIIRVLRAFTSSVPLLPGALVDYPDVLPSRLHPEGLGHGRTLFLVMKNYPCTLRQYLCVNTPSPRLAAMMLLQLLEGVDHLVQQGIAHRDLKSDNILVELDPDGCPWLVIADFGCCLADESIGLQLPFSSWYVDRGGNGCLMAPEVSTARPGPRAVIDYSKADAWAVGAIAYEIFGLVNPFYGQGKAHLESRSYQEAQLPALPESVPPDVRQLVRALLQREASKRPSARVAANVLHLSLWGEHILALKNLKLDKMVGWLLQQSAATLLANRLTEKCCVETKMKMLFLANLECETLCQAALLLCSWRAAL

Columns and labels:
[1] = target: valosin-containing protein (VCP), endogenous in human brain cortex (human (endogenous in brain cortex)) (UniProt P55072); test: co-IP; IP of endogenous VCP from postmortem human cortex: Protein A and Protein G agarose beads, 2 μg antibody, 1 mg lysate, overnight at 4°C; immunoblot for endogenous PINK1
[2] = target: valosin-containing protein (VCP), endogenous in HEK293 cells (human (endogenous in HEK293)) (UniProt P55072); test: co-IP; IP of endogenous VCP from HEK cells: Protein A and Protein G agarose beads, 2 μg antibody, 1 mg lysate, overnight at 4°C; immunoblot for endogenous PINK1
[3] = target: GFP-VCP (UniProt P55072); test: co-IP; GFP IP (μMACS Epitope Tag Protein Isolation kit) of lysates of transfected HEK293 cells; immunoblot
[4] = target: GFP-VCP (UniProt P55072); test: as above; remark: listed apart in the source

- binding [1]: binds
Molecule: PINK1, endogenous in human brain cortex (from UniProt Q9BXM7 78-581)

- binding [2]: binds
Molecule: PINK1, endogenous in HEK293 cells (from UniProt Q9BXM7 78-581)

- binding [3]: binds
Molecule: WT-PINK1-FLAG (from UniProt Q9BXM7 78-581)

- binding [4]: binds
B1: NSFL1C/p47, endogenous in HEK293 cells (protein, UniProt Q9UNZ2 1-370)
chain: MAAERQEALREFVAVTGAEEDRARFFLESAGWDLQIALASFYEDGGDEDIVTISQATPSSVSRGTAPSDNRVTSFRDLIHDQDEDEEEEEGQRFYAGGSERSGQQIVGPPRKKSPNELVDDLFKGAKEHGAVAVERVTKSPGETSKPRPFAGGGYRLGAAPEEESAYVAGEKRQHSSQDVHVVLKLWKSGFSLDNGELRSYQDPSNAQFLESIRRGEVPAELRRLAHGGQVNLDMEDHRDEDFVKPKGAFKAFTGEGQKLGSTAPQVLSTSSPAQQAENEAKASSSILIDESEPTTNIQIRLADGGRLVQKFNHSHRISDIRLFIVDARPAMAATSFILMTTFPNKELADESQTLKEANLLNAVIVQRLT
